Measurements taken from the supplement of paper PMC12823440, “Inhibitors supercharge kinase turnover through native proteolytic circuits” (Nature, 2025).
Where a name gives a salt, the structure may show the parent alone. Some of the results follow. The calls rarely recur for the same compound in another form.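 Kinases, fused to nanoluciferase, were expressed in K562 cells; luminescence was measured every 4 h from 2 to 18 h as percent of control (DMSO = 100%, positive control = 0%). A time point is decreased if signal falls significantly (2 sigma). Hits were called by the authors by a rule that is not shown; the count of time points alone does not decide it.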

Amino acid sequences for entries named in this document (tags omitted). A change or cut given only in a name is not applied to a line headed by its entry.
UniProt P10398: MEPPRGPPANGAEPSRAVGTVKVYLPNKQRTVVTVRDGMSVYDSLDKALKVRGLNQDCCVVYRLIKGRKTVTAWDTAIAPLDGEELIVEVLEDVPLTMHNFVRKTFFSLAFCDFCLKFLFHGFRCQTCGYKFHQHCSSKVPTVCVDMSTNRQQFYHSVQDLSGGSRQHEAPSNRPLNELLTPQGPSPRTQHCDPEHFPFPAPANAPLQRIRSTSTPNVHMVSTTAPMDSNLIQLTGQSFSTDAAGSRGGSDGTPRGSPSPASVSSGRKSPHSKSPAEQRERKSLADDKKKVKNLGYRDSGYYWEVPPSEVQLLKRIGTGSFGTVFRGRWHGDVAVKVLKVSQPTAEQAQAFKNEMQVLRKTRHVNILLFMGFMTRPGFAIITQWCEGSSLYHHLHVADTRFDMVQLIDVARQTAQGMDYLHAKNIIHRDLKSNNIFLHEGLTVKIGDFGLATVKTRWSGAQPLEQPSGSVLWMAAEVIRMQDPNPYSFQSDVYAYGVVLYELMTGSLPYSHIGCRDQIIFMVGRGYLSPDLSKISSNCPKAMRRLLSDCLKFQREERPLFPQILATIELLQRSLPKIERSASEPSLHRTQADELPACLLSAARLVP
UniProt O14965: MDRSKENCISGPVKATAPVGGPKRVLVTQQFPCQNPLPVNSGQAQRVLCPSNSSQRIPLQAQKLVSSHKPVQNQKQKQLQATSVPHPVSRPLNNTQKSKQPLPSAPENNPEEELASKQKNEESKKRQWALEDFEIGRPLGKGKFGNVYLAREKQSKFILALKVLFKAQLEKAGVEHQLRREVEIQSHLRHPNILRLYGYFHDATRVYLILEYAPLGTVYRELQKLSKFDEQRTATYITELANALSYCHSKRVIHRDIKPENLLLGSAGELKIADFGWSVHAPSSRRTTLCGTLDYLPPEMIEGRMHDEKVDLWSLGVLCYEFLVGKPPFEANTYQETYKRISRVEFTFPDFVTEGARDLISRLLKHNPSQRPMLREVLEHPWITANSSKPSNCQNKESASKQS

Biological target: ARAF (UniProt P10398)
Assay: number of time points (of 5) at which kinase-Nluc abundance scored as decreased, DMSO-normalised (count); higher = more persistent destabilization
Conditions: K562; 2-18 h

SMILES | number of time points
Nc1ncnc2c1c(-c1ccc(Oc3ccccc3)cc1)nn2C1CCNCC1 [N-piperidine Ibrutinib (hydrochloride)] (10 µM) | 0
CC(C)NC(=O)N1CC[C@H](NC2=Nc3cc(F)ccc3N(CC(F)F)c3ccc(Cl)cc32)C1 (10 µM) | 0
O=C(Nc1cc(Oc2cc(F)c(NC(=O)C3(C(=O)Nc4ccc(F)cc4)CC3)cc2F)ccn1)C1CC1 [Altiratinib] (10 µM) | 0
COCCOc1ccc(-c2cn(-c3ccccc3)c3nc[nH]c(=O)c23)cc1 (10 µM) | 0
Cc1ccc2nc(NC(=O)CSc3nc4c(c(=O)n3-c3ccccc3)SCC4)sc2c1 (2 µM) | 0
C[C@]1(O)CCC[C@@H]1n1c(=O)c(C(F)F)cc2cnc(NC3CCN(S(C)(=O)=O)CC3)nc21 (10 µM) | 0
NC1(Cc2ccc(Cl)cc2)CCN(c2ncnc3[nH]ccc23)CC1 (10 µM) | 0
O=C(O)c1cc(O)ccc1O [2,5-Dihydroxybenzoic acid] (10 µM) | 0
C=C(CCC=C(C)C)[C@H]1CC[C@]2(C)[C@@H]1[C@H](O)C[C@@H]1[C@@]3(C)CC[C@H](O[C@@H]4O[C@H](CO)[C@@H](O)[C@H](O)[C@H]4O[C@@H]4O[C@H](CO)[C@@H](O)[C@H](O)[C@H]4O)C(C)(C)[C@@H]3CC[C@]12C [Ginsenoside Rk1] (10 µM) | 0
CC(C)=CC[C@H](O)C1=CC(=O)c2c(O)ccc(O)c2C1=O [(-)-Alkannin] (2.5 µM) | 0
N#Cc1c(-c2ccccc2)cc(-c2cc(Br)ccc2O)[nH]c1=O (10 µM) | 0
CCn1c(-c2nonc2N)nc2cnc(Oc3cccc(NC(=O)c4ccc(OCCN5CCOCC5)cc4)c3)cc21 (10 µM) | 0
CO[C@H]1C[C@@H]2CC[C@@H](C)[C@@](O)(O2)C(=O)C(=O)N2CCCC[C@H]2C(=O)O[C@H]([C@H](C)C[C@@H]2CC[C@@H](O)[C@H](OC)C2)CC(=O)[C@H](C)/C=C(\C)[C@@H](O)[C@@H](OC)C(=O)[C@H](C)C[C@H](C)/C=C/C=C/C=C/1C [Rapamycin] (10 µM) | 0
CC(C)=CCC[C@](C)(O[C@@H]1O[C@H](CO)[C@@H](O)[C@H](O)[C@H]1O)[C@H]1CC[C@]2(C)[C@@H]1[C@H](O)C[C@@H]1[C@@]3(C)CC[C@H](O)C(C)(C)[C@@H]3[C@@H](O[C@@H]3O[C@H](CO)[C@@H](O)[C@H](O)[C@H]3O[C@@H]3O[C@@H](C)[C@H](O)[C@@H](O)[C@H]3O)C[C@]12C [Ginsenoside Re] (10 µM) | 0
Cn1c(=O)c(F)c(Nc2ccc(I)cc2F)c2c(=O)n(C[C@@H](O)CO)cnc21 (10 µM) | 0

Biological target: AURKA (UniProt O14965)
Assay: as above
Conditions: K562; 2-18 h

SMILES | number of time points
NCc1ccc(Nc2ncc(F)c(Nc3ccccc3)n2)cc1 (10 µM) | 0
C=C(C)C(=O)Nc1cccc(-c2ncnc3[nH]cc(C(=O)OCC)c23)c1 (10 µM) | 0
CCOc1cc(C(=O)N2CCC(N3CCN(C)CC3)CC2)ccc1Nc1ncc2c(n1)N(C1CCCC1)c1ccccc1C(=O)N2C (10 µM) | 0
CCOc1ccc(C(=O)Nc2ncc([N+](=O)[O-])s2)cc1 (10 µM) | 0
CNC(=O)Nc1ccc(-c2cc(-c3ccnc(Nc4ccc(C)c(S(=O)(=O)N(C)C)c4)n3)ccn2)cc1 [hSMG-1 inhibitor 11e] (2.5 µM) | 3
CNC(=O)c1ccc(-c2cnc3cnc(C(=O)N(C)c4ccc(Cl)cc4)cn23)cc1 (2.5 µM) | 0
COc1cccc(-n2c(=O)[nH]c3cc(Cl)n(-c4ccc(-c5cccc(OC)c5O)cc4)c3c2=O)c1 (2.5 µM) | 0
O=C(Nc1cccnc1)c1cc(C(=O)c2c(F)cccc2Br)c[nH]1 (10 µM) | 0
CN(CC(=O)N(Cc1ccc(C2CCCCC2)cc1)c1ccc(C(=O)O)cc1)S(=O)(=O)c1c(F)c(F)c(F)c(F)c1F (2.5 µM) | 0
COc1c(NC(=O)C(=O)c2ccc(OCCN3CCOCC3)c3ccccc23)cc(C(C)(C)C)cc1NS(C)(=O)=O (2.5 µM) | 0
CC(C)CC1(O)CCN(C(=O)c2ccc(NS(=O)(=O)c3cccc4nccnc34)cc2)CC1 (10 µM) | 0
O=C(/C=C/c1ccc(O)c(O)c1)c1ccc(O[C@@H]2O[C@H](CO)[C@@H](O)[C@H](O)[C@H]2O)c(O)c1O [Marein] (10 µM) | 0
Cc1cc2cc(Nc3ccnc(Nc4ccc5[nH]c(C)cc5c4)n3)ccc2[nH]1 (2.5 µM) | 0
Cc1cc(Nc2cc(Cl)nc(Oc3ccc([N+](=O)[O-])cc3)n2)n[nH]1 [Autophinib] (2.5 µM) | 0
Fc1ccc(-c2nc(-c3ccccc3F)[nH]c2-c2ccncc2)cc1 (2.5 µM) | 0
OC(COc1ccc(C(F)(F)F)cc1)CN(Cc1ccccc1)Cc1ccccc1 (centres undefined) (2.5 µM) | 0
COc1ccc2[nH]cc(/C=C3\C(=O)Nc4ccc(NC(=O)CCN5CCCCC5)cc43)c2c1 (2.5 µM) | 0
CS(=O)(=O)c1ccc(-c2noc(C(F)(F)F)c2-c2ccccc2)cc1 (10 µM) | 0
COCCO[C@@H]1[C@H](O)[C@@H](CO)O[C@H]1n1cnc2c(=O)[nH]c(N)nc21 [2′-O-(2-Methoxyethyl)guanosine] (10 µM) | 0
Cn1cnc(-c2cc3nccc(Oc4ccc(NC(=S)NC(=O)Cc5ccccc5)cc4F)c3s2)c1 [MGCD-265 analog] (10 µM) | 0

SMILES | number of time points
Cc1noc(C)c1-c1ccc(-c2cc(C(N)=O)c(NC(N)=O)s2)c(O[C@H]2CCNC2)c1 (10 µM) | 0
Cc1c(CN2CCN(S(C)(=O)=O)CC2)sc2c(N3CCOCC3)nc(-c3cnc(N)nc3)nc12 (2.5 µM) | 0
CC(C)CN(CC(=O)N1CCN(CC(OCc2ccc3ccccc3c2)c2ccc(Cl)cc2Cl)CC1)CC(C)C (centres undefined) [LYN-1604 (dihydrochloride)] (2.5 µM) | 0
CC/C=C\C/C=C\C/C=C\CCCCCCCC(=O)O [α-Linolenic acid] (10 µM) | 0
Nc1ncnc2c1c(-c1ccc(Oc3ccccc3)cc1)nn2C1CCNCC1 [N-piperidine Ibrutinib (hydrochloride)] (10 µM) | 0
CC(C)NC(=O)N1CC[C@H](NC2=Nc3cc(F)ccc3N(CC(F)F)c3ccc(Cl)cc32)C1 (10 µM) | 0
O=C(Nc1cc(Oc2cc(F)c(NC(=O)C3(C(=O)Nc4ccc(F)cc4)CC3)cc2F)ccn1)C1CC1 [Altiratinib] (10 µM) | 0
COCCOc1ccc(-c2cn(-c3ccccc3)c3nc[nH]c(=O)c23)cc1 (10 µM) | 0
Cc1ccc2nc(NC(=O)CSc3nc4c(c(=O)n3-c3ccccc3)SCC4)sc2c1 (2 µM) | 0
C[C@]1(O)CCC[C@@H]1n1c(=O)c(C(F)F)cc2cnc(NC3CCN(S(C)(=O)=O)CC3)nc21 (10 µM) | 0
NC1(Cc2ccc(Cl)cc2)CCN(c2ncnc3[nH]ccc23)CC1 (10 µM) | 0
O=C(O)c1cc(O)ccc1O [2,5-Dihydroxybenzoic acid] (10 µM) | 0
C=C(CCC=C(C)C)[C@H]1CC[C@]2(C)[C@@H]1[C@H](O)C[C@@H]1[C@@]3(C)CC[C@H](O[C@@H]4O[C@H](CO)[C@@H](O)[C@H](O)[C@H]4O[C@@H]4O[C@H](CO)[C@@H](O)[C@H](O)[C@H]4O)C(C)(C)[C@@H]3CC[C@]12C [Ginsenoside Rk1] (10 µM) | 0
CC(C)=CC[C@H](O)C1=CC(=O)c2c(O)ccc(O)c2C1=O [(-)-Alkannin] (2.5 µM) | 0
N#Cc1c(-c2ccccc2)cc(-c2cc(Br)ccc2O)[nH]c1=O (10 µM) | 0
CCn1c(-c2nonc2N)nc2cnc(Oc3cccc(NC(=O)c4ccc(OCCN5CCOCC5)cc4)c3)cc21 (10 µM) | 0
CO[C@H]1C[C@@H]2CC[C@@H](C)[C@@](O)(O2)C(=O)C(=O)N2CCCC[C@H]2C(=O)O[C@H]([C@H](C)C[C@@H]2CC[C@@H](O)[C@H](OC)C2)CC(=O)[C@H](C)/C=C(\C)[C@@H](O)[C@@H](OC)C(=O)[C@H](C)C[C@H](C)/C=C/C=C/C=C/1C [Rapamycin] (10 µM) | 0
CC(C)=CCC[C@](C)(O[C@@H]1O[C@H](CO)[C@@H](O)[C@H](O)[C@H]1O)[C@H]1CC[C@]2(C)[C@@H]1[C@H](O)C[C@@H]1[C@@]3(C)CC[C@H](O)C(C)(C)[C@@H]3[C@@H](O[C@@H]3O[C@H](CO)[C@@H](O)[C@H](O)[C@H]3O[C@@H]3O[C@@H](C)[C@H](O)[C@@H](O)[C@H]3O)C[C@]12C [Ginsenoside Re] (10 µM) | 0
Cn1c(=O)c(F)c(Nc2ccc(I)cc2F)c2c(=O)n(C[C@@H](O)CO)cnc21 (10 µM) | 0
